Measurements taken from publication PMC7044329.
Read-outs that look alike come from different tables or passages of the source. These are yes or no findings as the source states them, for the method shown. In cells and extracts the contact can be indirect. These calls come from enrichment with a bait or labelling near it, and not all partners need be listed. For part of these data: Where a sequence is shown, tags or fusion partners need not be part of it.

Chains of the proteins cited; added tags and fusions are not shown.
UniProt Q9Y2F5: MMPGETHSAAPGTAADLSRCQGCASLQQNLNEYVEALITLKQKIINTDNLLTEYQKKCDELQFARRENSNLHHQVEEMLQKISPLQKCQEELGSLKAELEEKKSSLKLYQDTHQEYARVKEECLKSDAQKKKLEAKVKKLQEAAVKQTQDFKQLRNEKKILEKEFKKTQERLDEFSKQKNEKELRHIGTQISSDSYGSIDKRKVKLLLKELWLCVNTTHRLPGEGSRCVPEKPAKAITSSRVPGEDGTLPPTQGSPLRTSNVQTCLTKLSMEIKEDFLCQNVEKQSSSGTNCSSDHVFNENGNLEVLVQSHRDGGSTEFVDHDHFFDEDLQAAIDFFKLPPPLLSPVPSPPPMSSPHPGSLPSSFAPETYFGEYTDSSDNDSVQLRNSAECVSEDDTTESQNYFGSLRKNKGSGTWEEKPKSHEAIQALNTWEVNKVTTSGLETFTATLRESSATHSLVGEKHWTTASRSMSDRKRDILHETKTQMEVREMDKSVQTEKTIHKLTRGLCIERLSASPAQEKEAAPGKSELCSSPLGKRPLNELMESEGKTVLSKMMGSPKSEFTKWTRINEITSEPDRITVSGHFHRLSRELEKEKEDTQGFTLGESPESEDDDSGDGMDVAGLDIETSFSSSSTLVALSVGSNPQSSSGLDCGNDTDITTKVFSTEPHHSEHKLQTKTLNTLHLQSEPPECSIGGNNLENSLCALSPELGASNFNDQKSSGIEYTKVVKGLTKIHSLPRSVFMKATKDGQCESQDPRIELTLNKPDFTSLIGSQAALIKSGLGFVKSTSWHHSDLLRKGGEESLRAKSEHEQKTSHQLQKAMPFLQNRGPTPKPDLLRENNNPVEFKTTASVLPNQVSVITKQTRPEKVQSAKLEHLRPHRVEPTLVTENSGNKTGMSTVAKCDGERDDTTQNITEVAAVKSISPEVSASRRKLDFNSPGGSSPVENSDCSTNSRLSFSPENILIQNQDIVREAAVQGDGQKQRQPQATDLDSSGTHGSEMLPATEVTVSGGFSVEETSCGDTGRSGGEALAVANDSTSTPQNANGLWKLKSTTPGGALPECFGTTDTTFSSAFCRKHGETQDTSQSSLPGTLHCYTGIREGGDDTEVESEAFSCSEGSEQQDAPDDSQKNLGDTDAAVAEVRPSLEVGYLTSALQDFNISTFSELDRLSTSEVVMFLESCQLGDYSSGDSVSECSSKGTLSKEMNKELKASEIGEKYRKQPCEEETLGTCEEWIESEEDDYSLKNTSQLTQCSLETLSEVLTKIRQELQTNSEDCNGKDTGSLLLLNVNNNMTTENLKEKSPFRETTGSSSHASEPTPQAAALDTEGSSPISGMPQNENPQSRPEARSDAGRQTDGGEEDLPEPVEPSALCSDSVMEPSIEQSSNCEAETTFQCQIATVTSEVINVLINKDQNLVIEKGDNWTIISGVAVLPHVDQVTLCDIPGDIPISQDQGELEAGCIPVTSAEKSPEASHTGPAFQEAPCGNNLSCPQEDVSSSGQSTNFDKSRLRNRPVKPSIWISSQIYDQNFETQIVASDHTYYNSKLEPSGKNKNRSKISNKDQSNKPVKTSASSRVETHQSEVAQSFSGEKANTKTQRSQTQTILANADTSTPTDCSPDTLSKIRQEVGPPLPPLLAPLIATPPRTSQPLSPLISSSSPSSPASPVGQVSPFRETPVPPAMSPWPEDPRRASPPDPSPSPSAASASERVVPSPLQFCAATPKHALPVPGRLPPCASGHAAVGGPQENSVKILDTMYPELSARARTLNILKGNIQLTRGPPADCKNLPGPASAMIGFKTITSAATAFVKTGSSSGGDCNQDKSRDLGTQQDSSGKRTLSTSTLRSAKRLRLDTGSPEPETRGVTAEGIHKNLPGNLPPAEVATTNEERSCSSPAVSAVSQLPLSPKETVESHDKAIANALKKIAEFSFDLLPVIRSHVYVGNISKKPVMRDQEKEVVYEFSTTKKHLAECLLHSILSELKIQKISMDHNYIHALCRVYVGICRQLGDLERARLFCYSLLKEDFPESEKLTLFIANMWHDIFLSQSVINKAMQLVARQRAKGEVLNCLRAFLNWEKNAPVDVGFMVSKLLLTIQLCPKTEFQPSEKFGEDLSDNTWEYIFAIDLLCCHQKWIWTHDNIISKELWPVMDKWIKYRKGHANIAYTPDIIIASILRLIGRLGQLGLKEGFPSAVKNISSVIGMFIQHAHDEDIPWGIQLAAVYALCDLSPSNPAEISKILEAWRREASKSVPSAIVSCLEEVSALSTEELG
UniProt O00472: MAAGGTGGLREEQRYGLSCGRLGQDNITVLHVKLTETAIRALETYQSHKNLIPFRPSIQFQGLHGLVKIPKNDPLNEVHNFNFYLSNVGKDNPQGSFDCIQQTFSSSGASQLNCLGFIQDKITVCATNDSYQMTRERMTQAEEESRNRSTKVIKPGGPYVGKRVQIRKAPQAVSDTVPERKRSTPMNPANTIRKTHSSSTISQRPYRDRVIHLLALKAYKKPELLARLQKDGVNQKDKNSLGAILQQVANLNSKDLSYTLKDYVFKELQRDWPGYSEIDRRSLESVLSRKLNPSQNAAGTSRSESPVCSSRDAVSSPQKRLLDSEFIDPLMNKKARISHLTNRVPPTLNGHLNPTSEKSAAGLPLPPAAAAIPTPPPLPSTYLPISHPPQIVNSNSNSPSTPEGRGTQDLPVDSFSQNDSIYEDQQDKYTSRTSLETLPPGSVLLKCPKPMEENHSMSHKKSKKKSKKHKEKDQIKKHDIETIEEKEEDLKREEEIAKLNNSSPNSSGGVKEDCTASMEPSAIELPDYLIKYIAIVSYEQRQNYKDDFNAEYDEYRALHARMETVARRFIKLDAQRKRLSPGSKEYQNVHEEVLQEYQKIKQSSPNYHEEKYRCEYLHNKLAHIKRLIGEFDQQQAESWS
UniProt Q9UKL3: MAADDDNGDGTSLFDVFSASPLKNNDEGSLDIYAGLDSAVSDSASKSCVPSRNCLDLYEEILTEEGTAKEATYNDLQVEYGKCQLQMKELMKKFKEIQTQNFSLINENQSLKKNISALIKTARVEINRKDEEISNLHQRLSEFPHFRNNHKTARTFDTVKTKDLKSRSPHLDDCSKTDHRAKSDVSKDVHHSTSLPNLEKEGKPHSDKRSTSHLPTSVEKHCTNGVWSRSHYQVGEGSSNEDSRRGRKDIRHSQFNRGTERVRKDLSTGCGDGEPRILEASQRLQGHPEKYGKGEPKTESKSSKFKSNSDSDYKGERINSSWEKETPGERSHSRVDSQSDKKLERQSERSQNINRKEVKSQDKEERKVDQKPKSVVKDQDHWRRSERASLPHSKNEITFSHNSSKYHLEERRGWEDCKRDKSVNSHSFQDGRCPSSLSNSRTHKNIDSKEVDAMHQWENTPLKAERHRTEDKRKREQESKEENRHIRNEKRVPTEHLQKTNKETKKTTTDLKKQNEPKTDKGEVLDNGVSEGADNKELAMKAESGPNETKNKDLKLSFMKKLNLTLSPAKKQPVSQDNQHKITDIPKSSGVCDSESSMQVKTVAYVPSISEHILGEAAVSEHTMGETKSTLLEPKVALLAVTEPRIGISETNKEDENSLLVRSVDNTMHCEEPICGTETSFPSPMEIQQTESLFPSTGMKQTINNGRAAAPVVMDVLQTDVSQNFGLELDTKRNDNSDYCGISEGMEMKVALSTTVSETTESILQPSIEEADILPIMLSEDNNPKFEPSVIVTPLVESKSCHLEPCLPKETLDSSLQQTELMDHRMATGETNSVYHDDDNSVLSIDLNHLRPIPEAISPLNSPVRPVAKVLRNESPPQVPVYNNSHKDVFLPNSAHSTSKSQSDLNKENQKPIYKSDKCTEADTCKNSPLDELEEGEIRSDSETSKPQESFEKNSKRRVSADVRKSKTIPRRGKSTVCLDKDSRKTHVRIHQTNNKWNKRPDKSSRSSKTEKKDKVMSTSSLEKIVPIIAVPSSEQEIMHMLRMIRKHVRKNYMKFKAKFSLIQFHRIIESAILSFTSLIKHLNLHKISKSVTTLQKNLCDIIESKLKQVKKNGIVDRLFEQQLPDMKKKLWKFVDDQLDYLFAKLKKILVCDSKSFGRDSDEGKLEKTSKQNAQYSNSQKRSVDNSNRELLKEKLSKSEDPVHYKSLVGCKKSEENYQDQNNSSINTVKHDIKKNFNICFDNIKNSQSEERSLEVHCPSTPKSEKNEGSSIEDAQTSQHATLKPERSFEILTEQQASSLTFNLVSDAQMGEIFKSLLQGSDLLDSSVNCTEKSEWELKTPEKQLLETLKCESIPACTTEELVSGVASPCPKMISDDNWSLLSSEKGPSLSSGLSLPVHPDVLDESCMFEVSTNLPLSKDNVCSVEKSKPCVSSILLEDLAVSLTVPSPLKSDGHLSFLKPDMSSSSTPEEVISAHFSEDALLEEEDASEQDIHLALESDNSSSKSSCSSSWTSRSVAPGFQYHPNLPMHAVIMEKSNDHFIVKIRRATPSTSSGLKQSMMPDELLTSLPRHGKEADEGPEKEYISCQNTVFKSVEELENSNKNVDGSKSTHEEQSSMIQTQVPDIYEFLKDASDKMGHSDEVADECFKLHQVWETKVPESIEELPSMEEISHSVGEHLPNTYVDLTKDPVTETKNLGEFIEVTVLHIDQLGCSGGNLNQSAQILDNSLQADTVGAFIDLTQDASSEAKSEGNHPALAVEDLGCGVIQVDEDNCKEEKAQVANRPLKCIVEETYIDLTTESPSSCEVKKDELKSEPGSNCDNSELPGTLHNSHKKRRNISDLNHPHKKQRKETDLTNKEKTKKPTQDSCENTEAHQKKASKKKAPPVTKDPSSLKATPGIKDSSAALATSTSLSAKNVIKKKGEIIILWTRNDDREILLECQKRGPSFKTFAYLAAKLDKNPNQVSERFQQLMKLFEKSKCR
UniProt Q96HW7: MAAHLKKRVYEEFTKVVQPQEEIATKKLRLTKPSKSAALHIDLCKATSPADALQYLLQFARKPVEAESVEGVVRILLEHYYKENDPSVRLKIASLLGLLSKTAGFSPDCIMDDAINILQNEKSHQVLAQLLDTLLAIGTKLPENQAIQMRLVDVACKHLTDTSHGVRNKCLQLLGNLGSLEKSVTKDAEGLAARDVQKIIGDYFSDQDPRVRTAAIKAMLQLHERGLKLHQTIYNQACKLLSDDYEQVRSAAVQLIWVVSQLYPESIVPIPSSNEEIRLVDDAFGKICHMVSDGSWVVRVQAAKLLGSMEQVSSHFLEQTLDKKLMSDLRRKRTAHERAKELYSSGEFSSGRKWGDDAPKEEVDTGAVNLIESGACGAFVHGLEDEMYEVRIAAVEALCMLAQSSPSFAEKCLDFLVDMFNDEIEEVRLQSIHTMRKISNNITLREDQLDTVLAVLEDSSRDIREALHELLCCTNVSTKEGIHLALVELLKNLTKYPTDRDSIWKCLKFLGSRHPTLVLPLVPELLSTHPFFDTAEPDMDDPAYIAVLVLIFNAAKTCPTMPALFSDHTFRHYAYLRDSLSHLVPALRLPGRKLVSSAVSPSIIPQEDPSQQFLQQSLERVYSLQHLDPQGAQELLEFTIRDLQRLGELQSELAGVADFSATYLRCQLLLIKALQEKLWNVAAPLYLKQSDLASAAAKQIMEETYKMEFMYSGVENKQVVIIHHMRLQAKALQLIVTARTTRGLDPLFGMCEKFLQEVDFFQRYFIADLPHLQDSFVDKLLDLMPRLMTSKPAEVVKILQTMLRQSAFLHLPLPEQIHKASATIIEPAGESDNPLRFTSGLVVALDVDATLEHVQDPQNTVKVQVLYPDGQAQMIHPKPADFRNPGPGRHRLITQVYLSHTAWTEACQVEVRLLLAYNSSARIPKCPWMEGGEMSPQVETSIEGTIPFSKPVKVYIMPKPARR
UniProt Q9NV88: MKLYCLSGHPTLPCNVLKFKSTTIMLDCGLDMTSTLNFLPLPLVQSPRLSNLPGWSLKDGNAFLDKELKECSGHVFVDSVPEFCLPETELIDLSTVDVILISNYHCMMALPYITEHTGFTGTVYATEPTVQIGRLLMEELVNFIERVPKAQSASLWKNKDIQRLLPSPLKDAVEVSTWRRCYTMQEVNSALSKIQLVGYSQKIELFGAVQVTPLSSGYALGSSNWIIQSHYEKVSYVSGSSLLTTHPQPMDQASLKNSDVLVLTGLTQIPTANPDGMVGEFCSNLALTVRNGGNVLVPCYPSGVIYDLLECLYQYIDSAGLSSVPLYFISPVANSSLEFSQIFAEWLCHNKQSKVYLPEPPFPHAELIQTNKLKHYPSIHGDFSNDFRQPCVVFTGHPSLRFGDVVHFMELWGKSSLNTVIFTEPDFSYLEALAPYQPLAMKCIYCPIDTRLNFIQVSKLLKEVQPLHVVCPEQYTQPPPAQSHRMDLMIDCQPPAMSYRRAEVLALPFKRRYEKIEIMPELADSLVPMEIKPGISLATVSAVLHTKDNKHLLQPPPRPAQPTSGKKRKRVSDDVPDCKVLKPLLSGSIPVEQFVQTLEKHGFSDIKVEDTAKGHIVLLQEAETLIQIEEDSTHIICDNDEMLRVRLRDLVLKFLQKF

How the values were obtained:
[1] = target: FLAG-tagged ICE1 (interactor of little elongation complex ELL subunit 1) (UniProt Q9Y2F5); assay: affinity purification with mass spectrometry; anti-FLAG agarose purification from nuclear extracts (prepared with Benzonase) of 293FRT cells stably expressing FLAG-ICE1, washes with 0.15 M NaCl, 0.1% Triton X-100, elution with FLAG peptide; MudPIT and gel-based mass spectrometry; parental cells as control
[2] = target: FLAG-tagged ICE1 (interactor of little elongation complex ELL subunit 1) (UniProt Q9Y2F5); assay: as above; remark: listed apart in the source

Molecule	binding [1]	binding [2]
ELL2 (from UniProt O00472 1-640)	binds	–
ELL-associated factor 1 (EAF1) (from UniProt Q96JC9 1-268)	binds	–
ELL-associated factor 2 (EAF2) (from UniProt Q96CJ1 1-260)	binds	–
FLICE-associated huge protein (FLASH) (from UniProt Q9UKL3 1-1982)	binds	–
INTS4 (from UniProt Q96HW7 1-963)	binds	–
INTS6 (from UniProt Q9UL03 1-887)	binds	–
INTS7 (from UniProt Q9NVH2 1-962)	binds	–
INTS9 (from UniProt Q9NV88 1-658)	binds	–
cap-binding protein 80 (CBP80) (from UniProt Q09161 1-790)	binds	–
coilin (from UniProt P38432 1-576)	binds	–
interactor of little elongation complex ELL subunit 2 (ICE2) (protein, UniProt Q659A1 1-982) MSSKMVISEPGLNWDISPKNGLKTFFSRENYKDHSMAPSLKELRVLSNRRIGENLNASASSVENEPAVSSATQAKEKVKTTIGMVLLPKPRVPYPRFSRFSQREQRSYVDLLVKYAKIPANSKAVGINKNDYLQYLDMKKHVNEEVTEFLKFLQNSAKKCAQDYNMLSDDARLFTEKILRACIEQVKKYSEFYTLHEVTSLMGFFPFRVEMGLKLEKTLLALGSVKYVKTVFPSMPIKLQLSKDDIATIETSEQTAEAMHYDISKDPNAEKLVSRYHPQIALTSQSLFTLLNNHGPTYKEQWEIPVCIQVIPVAGSKPVKVIYINSPLPQKKMTMRERNQIFHEVPLKFMMSKNTSVPVSAVFMDKPEEFISEMDMSCEVNECRKIESLENLYLDFDDDVTELETFGVTTTKVSKSPSPASTSTVPNMTDAPTAPKAGTTTVAPSAPDISANSRSLSQILMEQLQKEKQLVTGMDGGPEECKNKDDQGFESCEKVSNSDKPLIQDSDLKTSDALQLENSQEIETSNKNDMTIDILHADGERPNVLENLDNSKEKTVGSEAAKTEDTVLCSSDTDEECLIIDTECKNNSDGKTAVVGSNLSSRPASPNSSSGQASVGNQTNTACSPEESCVLKKPIKRVYKKFDPVGEILKMQDELLKPISRKVPELPLMNLENSKQPSVSEQLSGPSDSSSWPKSGWPSAFQKPKGRLPYELQDYVEDTSEYLAPQEGNFVYKLFSLQDLLLLVRCSVQRIETRPRSKKRKKIRRQFPVYVLPKVEYQACYGVEALTESELCRLWTESLLHSNSSFYVGHIDAFTSKLFLLEEITSEELKEKLSALKISNLFNILQHILKKLSSLQEGSYLLSHAAEDSSLLIYKASDGKVTRTAYNLYKTHCGLPGVPSSLSVPWVPLDPSLLLPYHIHHGRIPCTFPPKSLDTTTQQKIGGTRMPTRSHRNPVSMETKSSCLPAQQVETEGVAPHKRKIT	–	binds
nuclear protein co-activator of histone transcription (protein, UniProt Q14207 1-1427) MLLPSDVARLVLGYLQQENLISTCQTFILESSDLKEYAEHCTDEGFIPACLLSLFGKNLTTILNEYVAMKTKETSNNVPAIMSSLWKKLDHTLSQIRSMQSSPRFAGSQRARTRTGIAEIKRQRKLASQTAPASAELLTLPYLSGQFTTPPSTGTQVTRPSGQISDPSRSYFVVVNHSQSQDTVTTGEALNVIPGAQEKKAHASLMSPGRRKSESQRKSTTLSGPHSTIRNFQDPNAFAVEKQMVIENAREKILSNKSLQEKLAENINKFLTSDNNIAQVPKQTDNNPTEPETSIDEFLGLPSEIHMSEEAIQDILEQTESDPAFQALFDLFDYGKTKNNKNISQSISSQPMESNPSIVLADETNLAVKGSFETEESDGQSGQPAFCTSYQNDDPLNALKNSNNHDVLRQEDQENFSQISTSIQKKAFKTAVPTEQKCDIDITFESVPNLNDFNQRGNSNAECNPHCAELYTNQMSTETEMAIGIEKNSLSSNVPSESQLQPDQPDIPITSFVSLGCEANNENLILSGKSSQLLSQDTSLTGKPSKKSQFCENSNDTVKLKINFHGSKSSDSSEVHKSKIEINVLEPVMSQLSNCQDNSCLQSEILPVSVESSHLNVSGQVEIHLGDSLSSTKQPSNDSASVELNHTENEAQASKSENSQEPSSSVKEENTIFLSLGGNANCEKVALTPPEGTPVENSHSLPPESVCSSVGDSHPESQNTDDKPSSNNSAEIDASNIVSLKVIISDDPFVSSDTELTSAVSSINGENLPTIILSSPTKSPTKNAELVKCLSSEETVGAVVYAEVGDSASMEQSLLTFKSEDSAVNNTQNEDGIAFSANVTPCVSKDGGYIQLMPATSTAFGNSNNILIATCVTDPTALGTSVSQSNVVVLPGNSAPMTAQPLPPQLQTPPRSNSVFAVNQAVSPNFSQGSAIIIASPVQPVLQGMVGMIPVSVVGQNGNNFSTPPRQVLHMPLTAPVCNRSIPQFPVPPKSQKAQGLRNKPCIGKQVNNLVDSSGHSVGCHAQKTEVSDKSIATDLGKKSEETTVPFPEESIVPAAKPCHRRVLCFDSTTAPVANTQGPNHKMVSQNKERNAVSFPNLDSPNVSSTLKPPSNNAIKREKEKPPLPKILSKSESAISRHTTIRETQSEKKVSPTEIVLESFHKATANKENELCSDVERQKNPENSKLSIGQQNGGLRSEKSIASLQEMTKKQGTSSNNKNVLSVGTAVKDLKQEQTKSASSLITTEMLQDIQRHSSVSRLADSSDLPVPRTPGSGAGEKHKEEPIDIIKAPSSRRFSEDSSTSKVMVPPVTPDLPACSPASETGSENSVNMAAHTLMILSRAAISRTTSATPLKDNTQQFRASSRSTTKKRKIEELDERERNSRPSSKNLTNSSIPMKKKKIKKKKLPSSFPAGMDVDKFLLSLHYDE	–	binds
Symplekin (protein, UniProt Q92797 1-1274) MASGSGDSVTRRSVASQFFTQEEGPGIDGMTTSERVVDLLNQAALITNDSKITVLKQVQELIINKDPTLLDNFLDEIIAFQADKSIEVRKFVIGFIEEACKRDIELLLKLIANLNMLLRDENVNVVKKAILTMTQLYKVALQWMVKSRVISELQEACWDMVSAMAGDIILLLDSDNDGIRTHAIKFVEGLIVTLSPRMADSEIPRRQEHDISLDRIPRDHPYIQYNVLWEEGKAALEQLLKFMVHPAISSINLTTALGSLANIARQRPMFMSEVIQAYETLHANLPPTLAKSQVSSVRKNLKLHLLSVLKHPASLEFQAQITTLLVDLGTPQAEIARNMPSSKDTRKRPRDDSDSTLKKMKLEPNLGEDDEDKDLEPGPSGTSKASAQISGQSDTDITAEFLQPLLTPDNVANLVLISMVYLPEAMPASFQAIYTPVESAGTEAQIKHLARLMATQMTAAGLGPGVEQTKQCKEEPKEEKVVKTESVLIKRRLSAQGQAISVVGSLSSMSPLEEEAPQAKRRPEPIIPVTQPRLAGAGGRKKIFRLSDVLKPLTDAQVEAMKLGAVKRILRAEKAVACSGAAQVRIKILASLVTQFNSGLKAEVLSFILEDVRARLDLAFAWLYQEYNAYLAAGASGSLDKYEDCLIRLLSGLQEKPDQKDGIFTKVVLEAPLITESALEVVRKYCEDESRTYLGMSTLRDLIFKRPSRQFQYLHVLLDLSSHEKDKVRSQALLFIKRMYEKEQLREYVEKFALNYLQLLVHPNPPSVLFGADKDTEVAAPWTEETVKQCLYLYLALLPQNHKLIHELAAVYTEAIADIKRTVLRVIEQPIRGMGMNSPELLLLVENCPKGAETLVTRCLHSLTDKVPPSPELVKRVRDLYHKRLPDVRFLIPVLNGLEKKEVIQALPKLIKLNPIVVKEVFNRLLGTQHGEGNSALSPLNPGELLIALHNIDSVKCDMKSIIKATNLCFAERNVYTSEVLAVVMQQLMEQSPLPMLLMRTVIQSLTMYPRLGGFVMNILSRLIMKQVWKYPKVWEGFIKCCQRTKPQSFQVILQLPPQQLGAVFDKCPELREPLLAHVRSFTPHQQAHIPNSIMTILEASGKQEPEAKEAPAGPLEEDDLEPLTLAPAPAPRPPQDLIGLRLAQEKALKRQLEEEQKLKPGGVGAPSSSSPSPSPSARPGPPPSEEAMDFREEGPECETPGIFISMDDDSGLTEAALLDSSLEGPLPKETAAGGLTLKEERSPQTLAPVGEDAMKTPSPAAEDAREPEAKGNS	–	binds
eleven-nineteen lysine-rich leukemia protein (ELL) (protein, UniProt P55199 1-621) MAALKEDRSYGLSCGRVSDGSKVSVFHVKLTDSALRAFESYRARQDSVSLRPSIRFQGSQGHISIPQPDCPAEARTFSFYLSNIGRDNPQGSFDCIQQYVSSHGEVHLDCLGSIQDKITVCATDDSYQKARQSMAQAEEETRSRSAIVIKAGGRYLGKKVQFRKPAPGATDAVPSRKRATPINLASAIRKSGASAVSGGSGVSQRPFRDRVLHLLALRPYRKAELLLRLQKDGLTQADKDALDGLLQQVANMSAKDGTCTLQDCMYKDVQKDWPGYSEGDQQLLKRVLVRKLCQPQSTGSLLGDPAASSPPGERGRSASPPQKRLQPPDFIDPLANKKPRISHFTQRAQPAVNGKLGVPNGREALLPTPGPPASTDTLSSSTHLPPRLEPPRAHDPLADVSNDLGHSGRDCEHGEAAAPAPTVRLGLPLLTDCAQPSRPHGSPSRSKPKKKSKKHKDKERAAEDKPRAQLPDCAPATHATPGAPADTPGLNGTCSVSSVPTSTSETPDYLLKYAAISSSEQRQSYKNDFNAEYSEYRDLHARIERITRRFTQLDAQLRQLSQGSEEYETTRGQILQEYRKIKKTNTNYSQEKHRCEYLHSKLAHIKRLIAEYDQRQLQAWP	–	binds
arsenic resistance protein 2 (ARS2) (protein, UniProt Q9BXP5 1-876) MGDSDDEYDRRRRDKFRRERSDYDRSRERDERRRGDDWNDREWDRGRERRSRGEYRDYDRNRRERFSPPRHELSPPQKRMRRDWDEHSSDPYHSGYEMPYAGGGGGPTYGPPQPWGHPDVHIMQHHVLPIQARLGSIAEIDLGVPPPVMKTFKEFLLSLDDSVDETEAVKRYNDYKLDFRRQQMQDFFLAHKDEEWFRSKYHPDEVGKRRQEARGALQNRLRVFLSLMETGWFDNLLLDIDKADAIVKMLDAAVIKMEGGTENDLRILEQEEEEEQAGKPGEPSKKEEGRAGAGLGDGERKTNDKDEKKEDGKQAENDSSNDDKTKKSEGDGDKEEKKEDSEKEAKKSSKKRNRKHSGDDSFDEGSVSESESESESGQAEEEKEEAEEALKEKEKPKEEEWEKPKDAAGLECKPRPLHKTCSLFMRNIAPNISRAEIISLCKRYPGFMRVALSEPQPERRFFRRGWVTFDRSVNIKEICWNLQNIRLRECELSPGVNRDLTRRVRNINGITQHKQIVRNDIKLAAKLIHTLDDRTQLWASEPGTPPLPTSLPSQNPILKNITDYLIEEVSAEEEELLGSSGGAPPEEPPKEGNPAEINVERDEKLIKVLDKLLLYLRIVHSLDYYNTCEYPNEDEMPNRCGIIHVRGPMPPNRISHGEVLEWQKTFEEKLTPLLSVRESLSEEEAQKMGRKDPEQEVEKFVTSNTQELGKDKWLCPLSGKKFKGPEFVRKHIFNKHAEKIEEVKKEVAFFNNFLTDAKRPALPEIKPAQPPGPAQILPPGLTPGLPYPHQTPQGLMPYGQPRPPILGYGAGAVRPAVPTGGPPYPHAPYGAGRGNYDAFRGQGGYPGKPRNRMVRGDPRAIVEYRDLDAPDDVDFF	–	binds
